In article PMC7593643:
For at least one entry, the source does not settle the construct or the ends of the probe. Results from cells or extracts need not show a direct contact. For some of these results: No signal at the amounts used counts as a negative. For some of these results: At least one verdict rests on a figure or table, not on a statement of the authors.

What was measured:
[1] = system: Oct4 (SpOct4) (Scylla paramamosain); test: competition with a labelled probe; settings: 100-fold unlabeled SpTF-mut vs biotin SpTF-wt, eyestalk nuclear extract, no antibody in this assay; LightShift Chemiluminescent EMSA Kit (binding buffer, salt, pH, temperature not stated); 6% polyacrylamide gel, 1x TBE, 100 V, 1 h; protein in an extract; label: none (unlabeled competitor)
[2] = system: Sox9 (SpSox9) (Scylla paramamosain); test: competition with a labelled probe; settings: 100-fold unlabeled SpTF-mut vs biotin SpTF-wt, eyestalk nuclear extract, no antibody in this assay; LightShift Chemiluminescent EMSA Kit (binding buffer, salt, pH, temperature not stated); 6% polyacrylamide gel, 1x TBE, 100 V, 1 h; protein in an extract; label: none (unlabeled competitor)
[3] = system: Oct4 (SpOct4) (Scylla paramamosain); test: EMSA supershift; settings: eyestalk nuclear extract, anti-Oct4; LightShift Chemiluminescent EMSA Kit (binding buffer, salt, pH, temperature not stated); 6% polyacrylamide gel, 1x TBE, 100 V, 1 h; protein in an extract
[4] = system: Sox9 (SpSox9) (Scylla paramamosain); test: EMSA supershift; settings: eyestalk nuclear extract, anti-Sox9; LightShift Chemiluminescent EMSA Kit (binding buffer, salt, pH, temperature not stated); 6% polyacrylamide gel, 1x TBE, 100 V, 1 h; protein in an extract

Sequence: GGCATGGAACCGGGCAGAAATATAAAGTGCATGAGATTCTGGTGAAGGAAGGCTTAAGTA (double strand) [SpTF-mut]
- binding result [1]: no binding
- binding result [2]: no binding

Sequence: GGCATGGTTCCGGGCAGAAATATAAAGTGCATGAGATTCTGGTGAAGGAAGGCTTAAGTA (double strand) [SpTF-wt]
- binding result [3]: binds
- binding result [4]: binds
